The target of the experiment is T1, Desmoplakin (endogenous, WT fibroblasts) (mouse, UniProt E9Q557 1-2883, limits assumed).
T1 construct: Positive control partner of vimentin in the proximity ligation assay
In words: proximity ligation assay in WT fibroblasts, positive control (FIG. 8F). The text has this:
The interactions between Tubulin and MAP1β (FIG. 8E) or interaction between Desmoplakin and Vimentin (FIG. 8F) were detected with corresponding antibodies as indicated and used as positive controls.

B1: Vimentin (endogenous, WT fibroblasts) (other, mouse, UniProt P20152 2-466, looked up)
chain: STRSVSSSSYRRMFGGSGTSSRPSSNRSYVTTSTRTYSLGSALRPSTSRSLYSSSPGGAYVTRSSAVRLRSSVPGVRLLQDSVDFSLADAINTEFKNTRTNEKVELQELNDRFANYIDKVRFLEQQNKILLAELEQLKGQGKSRLGDLYEEEMRELRRQVDQLTNDKARVEVERDNLAEDIMRLREKLQEEMLQREEAESTLQSFRQDVDNASLARLDLERKVESLQEEIAFLKKLHDEEIQELQAQIQEQHVQIDVDVSKPDLTAALRDVRQQYESVAAKNLQEAEEWYKSKFADLSEAANRNNDALRQAKQESNEYRRQVQSLTCEVDALKGTNESLERQMREMEENFALEAANYQDTIGRLQDEIQNMKEEMARHLREYQDLLNVKMALDIEIATYRKLLEGEESRISLPLPTFSSLNLRETNLESLPLVDTHSKRTLLIKTVETRDGQVINETSQHHDDLE
As for B1, the binding result is “binds”.
